Reference: publication doi:10.1101/2020.12.28.424526 (bioRxiv, 2020)
These are yes or no findings as the source states them, for the method shown. In cells and extracts the contact can be indirect. Some results given as binding are weak or reduced against the parent protein; the word gives no strength.

Target: T1, 5'-3' exoribonuclease-2 (XRN-2) (C. elegans (endogenous in worm lysate)) (UniProt Q9U299)
T1 sequence: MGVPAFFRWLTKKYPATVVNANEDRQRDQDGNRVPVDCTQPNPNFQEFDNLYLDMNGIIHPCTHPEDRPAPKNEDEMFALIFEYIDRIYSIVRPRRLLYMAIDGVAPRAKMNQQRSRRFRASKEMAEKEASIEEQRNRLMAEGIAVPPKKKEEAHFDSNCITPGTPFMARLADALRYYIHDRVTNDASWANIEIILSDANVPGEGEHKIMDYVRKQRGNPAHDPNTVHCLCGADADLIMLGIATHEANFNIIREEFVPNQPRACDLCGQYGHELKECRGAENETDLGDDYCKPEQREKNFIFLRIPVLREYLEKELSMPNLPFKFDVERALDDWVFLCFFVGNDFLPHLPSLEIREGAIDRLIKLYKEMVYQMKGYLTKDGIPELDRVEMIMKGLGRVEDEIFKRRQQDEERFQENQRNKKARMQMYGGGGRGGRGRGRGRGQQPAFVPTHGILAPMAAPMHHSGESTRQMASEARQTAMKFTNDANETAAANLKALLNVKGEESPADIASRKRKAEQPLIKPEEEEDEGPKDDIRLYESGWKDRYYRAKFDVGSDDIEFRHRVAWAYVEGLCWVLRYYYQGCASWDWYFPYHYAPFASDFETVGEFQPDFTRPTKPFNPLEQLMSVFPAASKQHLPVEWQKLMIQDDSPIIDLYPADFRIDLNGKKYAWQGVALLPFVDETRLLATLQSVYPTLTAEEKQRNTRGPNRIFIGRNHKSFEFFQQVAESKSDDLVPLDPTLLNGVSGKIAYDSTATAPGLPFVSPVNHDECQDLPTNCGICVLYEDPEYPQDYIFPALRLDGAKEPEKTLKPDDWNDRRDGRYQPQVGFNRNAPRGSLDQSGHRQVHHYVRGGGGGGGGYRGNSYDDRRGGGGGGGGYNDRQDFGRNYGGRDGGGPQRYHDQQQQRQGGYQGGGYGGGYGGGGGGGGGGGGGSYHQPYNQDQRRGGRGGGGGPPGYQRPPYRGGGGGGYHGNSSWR
Assay: co-IP

binding: binds
B1: partner of XRN two-1 (PAXT-1) (natural protein, C. elegans (endogenous in worm lysate), UniProt Q21738 1-335, looked up)
chain: MGKLEDVEAEKKLWESDDAWELRKAFMLAHYDDYPKIQLQCLSQLFINVTLLGCEYSQTLMQKIRTMGAGIAANKDRTKTGSYVKASAAKKRQAVKTSDLEGASDESKKVKMEKSPSPVARESFDERLGKLKASLAMTPHHLTGEQMMKTATNSCLMKWHVNKINQKIEITIDRYVAFRHTFSQYCVDPRDCAINTLIESILSCDAAVHEESYEIRFDGVPVDECYAKSVTRRLAKIKSAVSNGAHTVKGLTTYLDAVNMSMIQNTQKLEGWSQQLDLVTADLLLSSRVLSSTECTKPAMATIANQMSEDVCQLILNDKINVINSMKSHSSLAFQ
